Results taken from PubChem BioAssay AID256 (DTP/NCI, 2004).
The list shows only some results of the screen, not a fair sample: it is rich in T/C values a quarter to a half above the control, in often repeated tests (any T/C) and in doses without a T/C. Other doses and runs of a compound stand elsewhere. T/C is the treated group as % of the vehicle group. Some entries give survivors of the animals treated and no T/C: the source holds a T/C of zero for them, seemingly a mark for toxic or unscored doses. Survivors were counted at the toxicity check, usually on the fifth day, unless a day is given; later deaths do not show. Schedule codes are those of the source, read here as Q, the interval in days (D) or hours (H), X, the number of doses. For survival time, this PubChem deposit counts one and a half times the control or more as active, and values a quarter to a half above the control carry no call in these data; other NCI protocols may use other cut-offs. Some T/C values are followed by the survivors on the day toxicity was checked, most often the fifth; where none is given, no animal had died by that day. Some entries hold several experiments; their values stand side by side, smallest first. Counts like (3×) give the number of equal values in this list.

Test system: CD2F1 mice, L1210 leukemia ip, survival T/C
Experiment: NCI In Vivo Anticancer Drug Screen. Data for tumor model L1210 Leukemia (intraperitoneal) in CD2F1 (CDF1) mice
Conditions: T/C endpoint: mean survival time, higher T/C = longer survival
In short: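 Compound-dosed mice with transplantable tumor versus matched vehicle controls; endpoint ratio T/C reported.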

[1] = dose: 16.0 mg/kg/injection, schedule: Q01DX009 (ip), vehicle: saline + alcohol

O=NN(CCCl)C(=O)NCCCl
T/C (dose: 10.0 mg/kg/injection, schedule: Q01DX001 (ip), vehicle: saline, evaluated on day 5): 114, 143, 150, 151, 220 % of control
T/C (dose: 10.0 mg/kg/injection, schedule: Q01DX001 (ip), vehicle: saline, evaluated on day 30): 150 (2×), 153, 182 % of control
T/C (dose: 10.0 mg/kg/injection, schedule: Q01DX001 (ip), vehicle: saline, evaluated on day 60): 219 % of control
T/C (dose: 15.0 mg/kg/injection, schedule: Q01DX001 (ip), vehicle: distilled water + alcohol): 141 % of control
T/C (dose: 15.0 mg/kg/injection, schedule: Q01DX001 (ip), vehicle: saline + alcohol, evaluated on day 30): 151 and 156 % of control
T/C (dose: 15.0 mg/kg/injection, schedule: Q01DX001 (ip), vehicle: saline + alcohol, evaluated on day 40): 129 and 203 % of control
T/C (dose: 16.0 mg/kg/injection, schedule: Q01DX001 (ip), vehicle: saline + alcohol, evaluated on day 5): 127, 163, 179, 186, 203, 228, 255, 260, 325, 329, 364 % of control
T/C (dose: 16.0 mg/kg/injection, schedule: Q01DX001 (ip), vehicle: saline + alcohol, evaluated on day 6): 186 % of control
T/C (dose: 16.0 mg/kg/injection, schedule: Q01DX001 (ip), vehicle: saline + alcohol, evaluated on day 30): 139 and 142 % of control
T/C (dose: 16.0 mg/kg/injection, schedule: Q01DX001 (ip), vehicle: saline + alcohol, evaluated on day 45): 168 % of control
T/C (dose: 16.0 mg/kg/injection, schedule: Q01DX009 (ip), vehicle: Klucel (hydroxypropylcellulose) (HPC)): 117, 120, 130, 147 % of control
T/C (dose: 16.0 mg/kg/injection, schedule: Q01DX009 (ip), vehicle: other): 131 and 136 % of control
T/C [1]: 108 [5 of 6 alive], 123, 125, 127, 132, 138 % of control
survivor count [1]: 0 of 6
T/C (dose: 16.0 mg/kg/injection, schedule: Q01DX009 (ip), vehicle: saline, evaluated on day 30): 114 (2×), 118, 134, 135 (2×), 141, 145, 147, 160, 296 % of control
T/C (dose: 16.0 mg/kg/injection, schedule: Q01DX009 (ip), vehicle: saline, evaluated on day 60): 145, 147, 160, 252 % of control
T/C (dose: 20.0 mg/kg/injection, schedule: Q01DX001 (ip), vehicle: saline + alcohol, evaluated on day 5): 196 % of control
T/C (dose: 20.0 mg/kg/injection, schedule: Q01DX001 (ip), vehicle: saline + alcohol, evaluated on day 6): 221 % of control
T/C (dose: 20.0 mg/kg/injection, schedule: Q01DX001 (ip), vehicle: saline + alcohol, evaluated on day 8): 205 % of control
T/C (dose: 20.0 mg/kg/injection, schedule: Q01DX001 (ip), vehicle: saline + alcohol, evaluated on day 30): 197 % of control
T/C (dose: 20.0 mg/kg/injection, schedule: Q01DX001 (ip), vehicle: saline + alcohol, evaluated on day 45): 181 % of control
T/C (dose: 20.0 mg/kg/injection, schedule: Q01DX001 (ip), vehicle: saline + alcohol, evaluated on day 60): 172, 400, 581 % of control
T/C (dose: 20.0 mg/kg/injection, schedule: Q01DX001 (ip), vehicle: saline, evaluated on day 5): 204, 211, 541 % of control
T/C (dose: 20.0 mg/kg/injection, schedule: Q01DX001 (ip), vehicle: saline, evaluated on day 7): 198 % of control
T/C (dose: 20.0 mg/kg/injection, schedule: Q01DX001 (ip), vehicle: saline, evaluated on day 30): 195, 202, 207, 325 % of control
T/C (dose: 20.0 mg/kg/injection, schedule: Q01DX001 (ip), vehicle: saline, evaluated on day 60): 533 % of control
T/C (dose: 30.0 mg/kg/injection, schedule: Q01DX001 (ip), vehicle: saline + alcohol, evaluated on day 30): 157 and 221 % of control
T/C (dose: 30.0 mg/kg/injection, schedule: Q01DX001 (ip), vehicle: saline + alcohol, evaluated on day 40): 194 and 459 % of control
T/C (dose: 30.0 mg/kg/injection, schedule: Q01DX001 (ip), vehicle: saline + alcohol, evaluated on day 60): 208, 659, 804 % of control
T/C (dose: 32.0 mg/kg/injection, schedule: Q01DX001 (ip), vehicle: saline + alcohol, evaluated on day 5): 168, 177, 317, 412, 505, 511, 523, 542, 555, 660, 669, 686 % of control
T/C (dose: 32.0 mg/kg/injection, schedule: Q01DX001 (ip), vehicle: saline + alcohol, evaluated on day 6): 212 % of control
T/C (dose: 32.0 mg/kg/injection, schedule: Q01DX001 (ip), vehicle: saline + alcohol, evaluated on day 30): 164 and 263 % of control
T/C (dose: 32.0 mg/kg/injection, schedule: Q01DX001 (ip), vehicle: saline + alcohol, evaluated on day 45): 360 % of control
T/C (dose: 32.0 mg/kg/injection, schedule: Q04DX003 (ip), vehicle: saline + alcohol): 148 % of control
